Laboratory results published in patent US20050215520A1, “Complex of organic medicines and beta-cyclodextrin derivatives and its preparing process” (priority 2002, published 2005).

Test: Critical mole ratio or critical mass ratio of medicines and beta-cyclodextrin derivative (Table 1, examples)
Format: physicochemical
Settings: beta-cyclodextrin derivative (hydroxide propyl beta-cyclodextrin in the examples) to medicine; complex dissolves exactly in water to stable solution
Procedure: The critical mole ratio or critical mass ratio in the present invention refers to the mole ratio and mass ratio when complex of organic medicine and beta-cyclodextrin derivatives prepared with the method of this invention is dissolved exactly in water of specified amount to form stable aqueous solution.
The critical value of organic medicine and beta-cyclodextrin derivatives in the present invention, may be determined with the undermentioned unit test method.
All kinds of mole ratio and mass ratio of the medicine and beta-cyclodextrin derivative is made into complex with expanding loose body according to the method of the present invention, then the set water is added into the a variety of compounding ratio of complex, and by observing properties of the solution, the compounding ratio of exactly dissolving in water and with stable property, acts as the critical mole ratio or critical mass ratio of the present invention.
The critical mole ratio and critical mass ratio in the present invention may be determined with the undermentioned saturated solution method. […]
From the results, it is seen that the results two measuring method of critical value are consistent generally. The critical mole ratio orcritical mass ratio of all kinds of medicines applied in the present invention, which measured in the experiments, is indicated in the following table 1: […]

- Critical value Mass ratio: 25
SMILES: O=C1OCCN1/N=C/c1ccc([N+](=O)[O-])o1 [furazolidone]
